Experimental data: PubChem BioAssay AID1487 (National Center for Advancing Translational Sciences (NCATS), 2009)
Some of the results follow. The main result of the screen is listed elsewhere. These columns were measured beside it and carry no call. The list favours compounds with an active or inconclusive main result. Potencies come from curve fits of mixed quality, noted in brackets.

Experiment: qHTS Assay for Modulators of Lamin A Splicing
Conditions: HeLa LMNA splicing GFP/RFP minigene ratio, 48 h
Summary of the method: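 S3 HeLa cells stably expressing lamin A-EGFP splicing minigene plus DsRed2, 600 cells/well, 48 h compound exposure at 37C. Laser-scanning cytometry; analysed as GFP (500-530 nm)/RFP (575-640 nm) total intensity ratio; 0.5% DMSO vehicle.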

[1] = measured here: GFP splicing reporter channel
[2] = measured here: RFP viability control channel

Structure (SMILES)	AC50 [1]	AC50 [2]
NC(=O)c1ncn(C2OC(CO)C(O)C2O)c1N (configuration not stated)	0.01 µM [falling, full curve, poor fit]	0.794 µM [rising, full curve, poor fit]
CC(/C=C/C=C(\C)C(=O)O[C@@H]1O[C@H](CO[C@@H]2O[C@H](CO)[C@@H](O)[C@H](O)[C@H]2O)[C@@H](O)[C@H](O)[C@H]1O)=C\C=C\C=C(C)\C=C\C=C(/C)C(=O)O[C@@H]1O[C@H](CO[C@@H]2O[C@H](CO)[C@@H](O)[C@H](O)[C@H]2O)[C@@H](O)[C@H](O)[C@H]1O	0.000891 µM [falling, full curve, poor fit]	15.8 µM [rising, single point]
O=C(CN1CCN(c2ccc([N+](=O)[O-])cc2)CC1)Nc1ccccn1	8.91 µM [rising, partial curve, poor fit]	22.4 µM [rising, partial curve]
Nc1nc2ccccc2n1C(=O)c1ccc(F)cc1	0.00316 µM [falling, full curve, poor fit]	0.00316 µM [falling, full curve, poor fit]
CCC[C@H]1C[C@H](C(=O)N[C@H]([C@@H]2O[C@H](SC)[C@@H](O)[C@H](O)[C@@H]2O)[C@H](C)O)N(C)C1	0.0631 µM [falling, full curve, poor fit]	0.0631 µM [falling, full curve, poor fit]
N#C/C(=C\c1ccc2c(c1)OCO2)C(=O)NCc1ccco1	1.12 µM [falling, partial curve, poor fit]	0.00398 µM [falling, full curve, poor fit]
O=C(Nc1ccccc1)Nc1ccc(Cl)c([N+](=O)[O-])c1		22.4 µM [rising, single point]
Cc1ccc(CCC(=O)Nc2ccccc2F)s1	5.01 µM [falling, single point]	
COc1cc(OC)c(NC(=S)Nc2cc(Cl)cc(Cl)c2)cc1Cl		35.5 µM [rising, single point]
CCOC(=O)c1sc(N(Cc2ccccc2)C(=O)COC(=O)c2ccc(O)cc2)nc1C	2.82 µM [rising, partial curve, poor fit]	14.1 µM [rising, partial curve, poor fit]
CSc1nc2ccc(NS(=O)(=O)c3ccc4c(c3)OCCO4)cc2s1		3.16 µM [rising, single point]
CCc1ccc(N2C(=O)CS(=O)(=O)C23C(=O)N(Cc2ccccc2)c2ccccc23)cc1 (configuration not stated)	2.51 µM [falling, partial curve, poor fit]	
COc1ccc(OCCn2cc(/C=N/NC(=O)c3ccncc3)c3ccccc32)cc1		35.5 µM [rising, single point]
CCOc1ccc(NC(=S)N2CCCN(Cc3cccc(Cl)c3)C2)cc1	20 µM [falling, single point]	20 µM [falling, partial curve, poor fit]
O=[N+]([O-])c1cc(C2Nc3cccc4cccc(c34)N2)ccc1Cl		0.794 µM [rising, full curve, poor fit]
CCCc1nn(C)c2c(=O)[nH]c(-c3cc(S(=O)(=O)N4CCN(C)CC4)ccc3OCC)nc12	35.5 µM [falling, single point]	
CCOC(=O)C(=NCCCN1CCOCC1)NNc1cccc(C(F)(F)F)c1	12.6 µM [rising, single point]	
Cc1ccc(N(Cc2ccco2)C(=O)c2ccc(N3CCCCC3)c([N+](=O)[O-])c2)cc1	12.6 µM [rising, single point]	
CN(C)c1nc(Oc2ccc(OCCOc3ccccc3)nn2)nc(N(C)C)n1		0.112 µM [falling, full curve, poor fit]
COc1ccccc1CN1CCNC(=O)C1CC(=O)NCCC1=CCCCC1 (configuration not stated)	6.31 µM [falling, partial curve, poor fit]	0.447 µM [falling, partial curve, poor fit]
O=C(Nc1ccccc1N1CCOCC1)C1CCN(S(=O)(=O)c2ccccc2F)CC1		8.91 µM [rising, partial curve]
COc1ccc(C2=C(C#N)C(=O)OC2)cc1	22.4 µM [falling, single point]	35.5 µM [falling, single point]
O=C(CSc1nc(O)c(C2CCCCC2)c(=O)[nH]1)NCC1CCCO1 (configuration not stated)	35.5 µM [rising, single point]	15.8 µM [rising, single point]
CCOc1ccc(-c2c(C)nn3c(C)c(C(=O)NCC(C)c4ccccc4)cnc23)cc1OCC (configuration not stated)	5.62 µM [falling, partial curve, poor fit]	0.251 µM [falling, full curve]
CCc1ccccc1NC(=O)/C(=C/c1ccco1)c1ccccc1		7.08 µM [rising, partial curve, poor fit]
COc1cc(C)ccc1OCCCCOc1ccccc1C(C)=O	3.55 µM [rising, full curve]	12.6 µM [rising, partial curve]
CC(C)c1ccccc1NC(=O)COC(=O)C1(C)CC1(Cl)Cl (configuration not stated)		8.91 µM [falling, partial curve]

Some of these compounds in order of formula weight, rising:
Structure (SMILES)	AC50 [1]	AC50 [2]
N#C/C(=C\c1ccc2c(c1)OCO2)C(=O)NCc1ccco1	1.12 µM [falling, partial curve, poor fit]	0.00398 µM [falling, full curve, poor fit]
O=C(Nc1ccccc1N1CCOCC1)C1CCN(S(=O)(=O)c2ccccc2F)CC1		8.91 µM [rising, partial curve]
CCOC(=O)c1sc(N(Cc2ccccc2)C(=O)COC(=O)c2ccc(O)cc2)nc1C	2.82 µM [rising, partial curve, poor fit]	14.1 µM [rising, partial curve, poor fit]

Further structures.

Structure (SMILES)	AC50 [1]	AC50 [2]
Cc1cccc(NC(=O)C(=O)NCCCc2ccccc2)c1		22.4 µM [rising, single point]
O=c1c2sccc2nc(SCc2cc(=O)n3ccccc3n2)n1-c1ccc(Br)cc1	0.355 µM [falling, full curve, poor fit]	
CC1(C)[C@@H]2CC[C@]1(C)[C@@H](OC(=O)CSC#N)C2		6.31 µM [rising, single point]
CC(C)CC(C(=O)Nc1oc(-c2ccccc2)c(-c2ccccc2)c1C#N)N1C(=O)c2ccccc2C1=O (configuration not stated)		35.5 µM [rising, single point]
COc1ccccc1-c1c(C#N)c(N)nc2c1CCc1ccccc1-2	35.5 µM [falling, partial curve]	2.82 µM [falling, partial curve]
Cc1ccc(-c2cc(C(F)F)nc(NCc3cccs3)n2)cc1		0.0141 µM [rising, full curve, poor fit]
O=C(N/N=C/c1cc(Br)cc(Br)c1O)c1ccncc1		10 µM [rising, partial curve]
OCCN(CCO)c1ccc(C(c2ccc(Cl)cc2)c2ccc(N(CCO)CCO)cc2Cl)c(Cl)c1	35.5 µM [falling, partial curve]	25.1 µM [falling, single point]
CCOC(=O)CSc1nc(C(C)(C)C)nc2ccccc12	0.794 µM [falling, full curve, poor fit]	
c1ccc(-c2ccc(-c3cn4c(n3)CCC4)cc2)cc1		10 µM [rising, partial curve]
CCOc1ccccc1/C=C(/NC(=O)c1ccccc1)C(=O)NCC(=O)O	6.31 µM [falling, single point]	
CCOC(=O)N1CCN(c2nc(-c3ccc(Cl)cc3)cs2)CC1		17.8 µM [rising, single point]
Fc1ccccc1CNC(=S)Nc1cccc(C(F)(F)F)c1		35.5 µM [rising, single point]
O=c1c2oc3ccccc3c2ncn1Cc1ccc(F)cc1		0.0891 µM [falling, full curve, poor fit]
Cc1ccc(/C(O)=C2/C(=O)C(=O)N(Cc3cccnc3)C2c2ccccn2)cc1 (configuration not stated)	35.5 µM [falling, single point]	20 µM [falling, single point]
COc1cc(CNCCc2ccccc2)cc(Br)c1OCC(=O)Nc1ccccc1C		11.2 µM [falling, single point]
Cc1ccc(CCNC(=O)c2ccc(CNS(=O)(=O)c3ccc(C)cc3)cc2)cc1		0.891 µM [falling, full curve, poor fit]
CCCN1CCCc2cc(CN)ccc21		35.5 µM [rising, single point]
CCc1ccc(C2=NN(c3ccc(S(N)(=O)=O)cc3)C(c3ccc(F)cc3)C2)cc1 (configuration not stated)	14.1 µM [falling, partial curve]	35.5 µM [falling, single point]
O=C(c1ccc2c(c1)OCO2)N1CCN(c2ccc(C(F)(F)F)cn2)CC1		28.2 µM [rising, single point]
CCOC(=O)N1CCN(c2nc3c(c(=O)[nH]c(=O)n3C)n2Cc2ccccc2Cl)CC1	0.0224 µM [rising, full curve, poor fit]	
CC(=O)Nc1cccc(NC(=S)Nc2cccc(Cl)c2Cl)c1		0.0112 µM [falling, full curve, poor fit]
c1ccc(-c2nnc(SCC3CCCCO3)nc2-c2ccccc2)cc1 (configuration not stated)		17.8 µM [rising, single point]
CC(=O)[C@@H]1[C@@H](C(=O)c2ccccc2)[C@]2(C(=O)Nc3ccccc32)[C@H]2C=Cc3cc(F)ccc3N12		0.501 µM [rising, partial curve, poor fit]
O=C(/C=C/Sc1ncn[nH]1)c1ccc(Cl)cc1	4.47 µM [falling, full curve]	8.91 µM [falling, partial curve]
Cc1cccc(-c2nnc(SCCC(=O)N3CCOCC3)o2)c1	3.98 µM [falling, partial curve]	3.98 µM [falling, partial curve, poor fit]
